According to patent publication US20250346635A1, “VASCULAR ENDOTHELIAL GROWTH FACTOR RECEPTOR-1 (VEGFR-1) INHIBITORS FOR PROMOTING MYELINATION AND NEUROPROTECTION” (ICM (INSTITUT DU CERVEAU ET DE LA MOELLE ÉPINIÉRE), priority 2022, published 2025):
At least one structure is not confirmed: it was looked up by name or label, or the drawing left a doubt.

Columns and labels:
Format in all cases: cell-based
[1] = system: Purkinje cells; experiment: Neuroprotection of Purkinje cells in organotypic cerebellar slices (CaBP immunostaining); settings: 500 nM, 10 days in vitro, slices from P0 mouse
Protocol: Organotypic cerebellar slices were generated from brains of postnatal day 0 (P0) and P7 mouse pups. Briefly, cerebella were dissected and cut into 350 μm slices. Cerebellar slices from the vermis were collected and then cultured on Millicell cell culture inserts (Millipore) in 6-wellplates in a medium composed of 50% Basal Medium Eagle, 25% Hank solution (HBSS), 25% inactivated horse serum, 5 mg/ml high-glucose, 1 mM L-glutamine, 0.2% penicillin-streptomycin. Slices were incubated at 37° C. (5% CO2) for 10 days (slices from P0) or 3 days (slices from P7). The culture medium was replaced every 2-3 days. For immunohistochemistry, slices were fixed in 4% paraformaldehyde and immunostained for CaBP and MBP. Briefly, slices were incubated in 4% BSA/0.2% triton for 1 hour and next incubated overnight with the following primary antibodies: rabbit anti-CaBP (dilution: 1/10000) and rat anti-MBP (dilution: 1/250). After several washes in PBS 0.1M, slices were then incubated with the secondary antibodies (anti-rabbit alexaFluor555, anti-mouse alexaFluor488) and Dapi for 2 hours and finally washed in PBS 0.1M and mounted in Fluoromount medium. Flurorescence imaging were performed with a confocal microscopy NIKON A1R-HD25.
The neuroprotective effects of the drugs were assessed by evaluating the density of Purkinje cells in basal medium alone and in basal medium supplemented with VEGFRs inhibitors. […]

[2] = system: rat primary OPC cultures; experiment: OPC differentiation in rat primary OPC cultures (MBP+Sox10+ cells); settings: 500 nM, 5 days in vitro
Protocol: Rat primary OPC cultures were obtained from neonatal pups (P0-P1). Brains were dissected, cerebellar cortices and meninges were removed. Brain tissues were next mechanically and enzymatically dissociated. After filtration and centrifugation, mixed cells of astrocytes, microglia and OPCs was cultured in DMEM medium on polyornithine-coated flasks. After 13-14 days of culture, microglial cells were removed by shaking during 2 h. OPCs were next collected after 18 h of shaking, followed by differential adhesion. OPCs purification was validated by immunostaining of Olig2 and Sox10. […]
(§1) Oligodendrocytes differentiation was assessed by analyzing the fold increase of MBP^+Sox10^+ cells in treated conditions relative to the basal condition. The percentage of MBP^+Sox10^+ cells were quantified after treatments with pan-VEGFRs and selective VEGFR-1 antagonists and compared with the basal medium. […] Myelination was assessed using organotypic cerebellar slices generated from P7 mice cerebellum and the effect of VEGFRs sub-types antagonists on myelination was analyzed after immunostaining for Sox10 for oligodendroglia, MBP for myelin (white) and calbindin (gray). […] The myelination index for each condition was quantified as the percentage of MBP+CaBP+ axons over the total CaBP+ axonal surface area and normalized relatively to basal condition.

[3] = system: organotypic cerebellar slices; experiment: Myelination in organotypic cerebellar slices from P7 mice (MBP/CaBP); settings: 500 nM, 3 days ex vivo, slices from P7 mouse
Protocol: Organotypic cerebellar slices were generated from brains of postnatal day 0 (P0) and P7 mouse pups. Briefly, cerebella were dissected and cut into 350 μm slices. Cerebellar slices from the vermis were collected and then cultured on Millicell cell culture inserts (Millipore) in 6-wellplates in a medium composed of 50% Basal Medium Eagle, 25% Hank solution (HBSS), 25% inactivated horse serum, 5 mg/ml high-glucose, 1 mM L-glutamine, 0.2% penicillin-streptomycin. Slices were incubated at 37° C. (5% CO2) for 10 days (slices from P0) or 3 days (slices from P7). The culture medium was replaced every 2-3 days. […]
as §1

SMILES: COCCNCc1ccc(-c2cc3nccc(Oc4ccc(NC(=S)NC(=O)Cc5ccc(F)cc5)cc4F)c3s2)nc1 [MGCD-265]
- neuroprotection / number of Purkinje cells relative to basal condition [1]: higher number of Purkinje cells with respect to the basal condition
- number of SOX10+MBP+ differentiated oligodendrocytes relative to basal condition [2]: significant increase
- MBP+ mature oligodendrocytes in organotypic cerebellar slices [3]: numerous MBP^+ mature oligodendrocytes
